Test results from PubChem BioAssay AID485314 (National Center for Advancing Translational Sciences (NCATS), 2010).
The campaign covered roughly 340,000 compounds. About 4,500 (1.3%) were called active. This list was built around the results that the source calls inconclusive (neither active nor inactive); the mix of calls is not that of the screen. The call rests on the fitted dose curve; in most records, active means well fitted inhibition curve with a large enough effect; inconclusive means small, poorly fitted or top-dose-only effect, or another doubt; inactive means no such curve, though single readings can be large or run the other way. A potency beside an inconclusive call is a rough fit, not a confirmed value.

target: DNA polymerase beta (Homo sapiens) (UniProt P06746); assay: qHTS Assay for Inhibitors of DNA Polymerase Beta; conditions: Pol beta primer extension/strand displacement, fluorescence kinetic; activity change, negative = inhibition: at 114 µM (top of the series)
Procedure, shortened: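 Preincubation: enzyme (10 nM) with compound, 15 min, RT. Reaction: substrate added to 50 nM final. Reads: 0 and 10 min. Analysis: normalized, Hill fit.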
On the % scale 0 is the no-effect control and ±100 the full control effect; potency means the concentration at half of the fitted maximal effect.

Row | SMILES | Potency | activity change, negative = inhibition
1 | COC(=O)Cc1c(C)nc2nc(NCc3ccc(Br)cc3)[nH]n2c1=O | inconclusive: 17.8 µM [inhibitor, full curve] | 
2 | CCOC(=O)CN(Cc1ccccc1)C(C(=O)NC1CCCCC1)c1ccccc1 (stereo not drawn) | inactive | 
3 | Cc1ccccc1OCc1nnc(SCc2cc(=O)c3cc(F)ccc3[nH]2)n1C | inactive | 
4 | O=C1NNC(c2ccccc2)=N/C1=C\c1ccco1 | active: 10 µM | 
5 | Cc1ccc(S(=O)(=O)c2cn(CC(=O)Nc3ccc4c(c3)OCO4)c3ccc(C)cc3c2=O)cc1 | inactive | 
6 | N#C/C(=C\c1ccco1)C(=O)NCC1CCCO1 (stereo not drawn) | inconclusive: 25.1 µM [inhibitor, full curve] | 
7 | Cc1cccc(N=Nc2cnc(N)s2)c1 | inconclusive: 79.4 µM [inhibitor, single point] | 
8 | C/C=C\C=C\C(=O)N1CC2(CC(c3cccc(NC(=O)CC)c3)=NO2)C[C@H]1C(N)=O (stereo partly drawn) | inactive | 
9 | CCOC(=O)c1ccc(N=Nc2c(C)[nH]n(-c3ccccc3)c2=O)cc1 | inconclusive: 3.16 µM [inhibitor, full curve, poor fit] | 
10 | NC(=O)CSc1ncc2c(n1)-c1ccccc1N(Cc1ccc(Cl)cc1)S2(=O)=O | inactive | 
11 | COc1ccc(CNC(=O)c2cc(=O)c3cc(C)ccc3o2)cc1 | inconclusive: 17.8 µM [inhibitor, full curve, poor fit] | 
12 | CCC(=O)c1ccc(CCCCCC(=O)O)s1 | active: 35.5 µM | 
13 | O=C(/C=C/c1ccco1)NC(=S)Nc1ccccn1 | active: 39.8 µM | 
14 | O=C(CSc1nnnn1-c1ccccc1Cl)Nc1ccc2c(c1)OCCO2 | inconclusive: 89.1 µM [inhibitor, single point] | 
15 | CCOc1cc(C2NC(=O)N(C)C(C)=C2[N+](=O)[O-])ccc1OC(C)=O (stereo not drawn) | inconclusive: 0.355 µM [inhibitor, full curve] | 
16 | COc1ccc(NC(=O)CN(c2ccccc2)S(=O)(=O)N(C)C)cc1Cl | inactive | 
17 | Cc1c(CNC2CCCCC2)c(C(=O)O)c(C)n1Cc1ccc(F)cc1 | inactive | 
18 | CSc1ccccc1NC(=O)c1cc2ncc(Br)cn2n1 | inconclusive: 10 µM [inhibitor, full curve] | 
19 | CCC(=O)Nc1ccc2nc3c(=O)n(C)c(=O)n(C)c3nc2c1 | inactive | 
20 | COc1ccc2nc(NC(=O)CSc3nnc(C)n3N)sc2c1 | inconclusive: 100 µM [inhibitor, single point] | 
21 | CCC(NC(=O)Nc1cc(OC)ccc1OC)c1c(-n2cccc2)sc2c1CCN(CC)C2 (stereo not drawn) | inconclusive: 79.4 µM [inhibitor, single point] | 
22 | C1CCC(c2nn3c(-c4n[nH]c5c4CCC5)nnc3s2)CC1 | inconclusive: 10 µM [inhibitor, partial curve, poor fit] | 
23 | CCc1cc2c(=O)c(-c3nc4ccccc4n3C)coc2c(CN2CCCCC2C)c1O (stereo not drawn) | active: 28.2 µM | 
24 | O=C(Nc1ccc2oc(-c3ccc4ccccc4c3)nc2c1)c1ccc2c(c1)OCCO2 | inconclusive: 3.98 µM [inhibitor, partial curve] | 
25 | Cc1cc(Nc2ccc(Cl)cc2C)nc(-n2nc(C)cc2C)n1 | inactive | 

Row | SMILES | Potency | activity change, negative = inhibition
26 | O=C(NCc1ccc2c(c1)CCN2C(=O)c1ccc(F)cc1)c1ccco1 | inactive | 
27 | O=C(NC1CCCCCC1)c1ccc(CS(=O)(=O)Cc2ccccc2F)o1 | inconclusive: 6.31 µM [inhibitor, single point] | 
28 | O=[N+]([O-])c1cc(F)c2cccnc2c1O | inconclusive: 89.1 µM [inhibitor, single point] | 
29 | NC(=O)C1CN(S(=O)(=O)c2ccc(Cl)cc2F)c2ccccc2O1 (stereo not drawn) | active: 63.1 µM | 
30 | COc1ccc(N2CCN(C(c3cccs3)C(C)NC(=O)c3ccc4c(c3)OCO4)CC2)cc1 (stereo not drawn) | inconclusive: 31.6 µM [inhibitor, partial curve] | 
31 | O=C(CSc1nc2c([nH]c3ccccc32)c(=O)n1-c1cccc(Cl)c1)N1CCOCC1 | inconclusive: 8.91 µM [inhibitor, full curve] | 
32 | COc1ccc(OC)c(C(=O)c2coc3ccc(O)cc23)c1 | inconclusive: 35.5 µM [inhibitor, single point] | 
33 | O=C(COc1ccccc1/C=C1\SC(=O)NC1=O)Nc1ccccc1 | inactive | 
34 | Cc1cccc(NC(=O)c2sc3nc4c(c(-c5cccs5)c3c2N)CN(C)CC4)c1 | inconclusive: 0.141 µM [inhibitor, full curve, poor fit] | 
35 | COc1ccc(C2(c3ccc(O)cc3O)CC(c3ccccc3Cl)NC(=S)N2)cc1 (stereo not drawn) | inconclusive: 0.447 µM [inhibitor, full curve, poor fit] | 
36 | Nc1cc2c3c(cccc3c1)C(=O)N(CCN1CCCC1)C2=O | active: 25.1 µM | 
37 | O=C(CSc1nnnn1-c1cccnc1)Nc1ccccc1F | inconclusive: 89.1 µM [inhibitor, single point] | 
38 | COc1ccccc1NS(=O)(=O)c1ccc(C(N)=O)cc1 | inconclusive: 0.562 µM [inhibitor, full curve, poor fit] | 
39 | COc1ccc2nc(NC(=O)c3ccc(Br)s3)sc2c1 | inconclusive: 3.98 µM [inhibitor, partial curve, poor fit] | 
40 | CCOC(=O)N1CCc2c(sc3c2C(=O)NC(c2cc(OC)c(O)c(OC)c2)N3)C1 (stereo not drawn) | inconclusive: 79.4 µM [inhibitor, single point] | 
41 | O=S1(=O)CC(O)C(NCc2ccco2)C1 (stereo not drawn) | inconclusive: 89.1 µM [inhibitor, single point] | 
42 | Cc1ccc(C(=O)c2oc3ccccc3c2NC(=O)COc2ccccc2Cl)cc1 | inactive | 
43 | COCCCN1CN=C(Nc2nc3ccccc3o2)NC1 | inactive | 
44 | CC1CCCN(S(=O)(=O)c2ccc(C(=O)Nc3sc4c(c3C(N)=O)CCN(C)C4)cc2)C1 (stereo not drawn) | inconclusive: 50.1 µM [inhibitor, partial curve] | 
45 | O=S(=O)(Nc1cccc(-c2ccc(N3CCCCCC3)nn2)c1)c1ccccc1Cl |  | inconclusive: -30.8% [inhibitor]
46 | COc1cc(/C=N/NC(=O)CSc2ccccn2)ccc1OC(C)C | inconclusive: 89.1 µM [inhibitor, single point] | 
47 | Nc1nc(SCC(=O)Nc2ccc([N+](=O)[O-])cc2)n[nH]1 | inconclusive: 39.8 µM [inhibitor, single point] | 
48 | O=C(CSc1nc2ncc(Cl)cc2[nH]1)Nc1cccc(F)c1 |  | inconclusive: -37.9% [inhibitor]
49 | Cc1cccc(C(=O)Nc2ccc(C(=O)N/N=C/c3ccc(C)o3)cc2)c1 | inconclusive: 8.91 µM [inhibitor, full curve, poor fit] | 
50 | CCC(C)(C)NC(=O)C1CCN(c2nc(OC)nc(OC)n2)CC1 | inconclusive: 50.1 µM [inhibitor, single point] | 

Quoted from above, 17 compounds:
Row | SMILES | Potency | activity change, negative = inhibition
15 | CCOc1cc(C2NC(=O)N(C)C(C)=C2[N+](=O)[O-])ccc1OC(C)=O (stereo not drawn) | inconclusive: 0.355 µM [inhibitor, full curve] | 
16 | COc1ccc(NC(=O)CN(c2ccccc2)S(=O)(=O)N(C)C)cc1Cl | inactive | 
17 | Cc1c(CNC2CCCCC2)c(C(=O)O)c(C)n1Cc1ccc(F)cc1 | inactive | 
18 | CSc1ccccc1NC(=O)c1cc2ncc(Br)cn2n1 | inconclusive: 10 µM [inhibitor, full curve] | 
19 | CCC(=O)Nc1ccc2nc3c(=O)n(C)c(=O)n(C)c3nc2c1 | inactive | 
20 | COc1ccc2nc(NC(=O)CSc3nnc(C)n3N)sc2c1 | inconclusive: 100 µM [inhibitor, single point] | 
21 | CCC(NC(=O)Nc1cc(OC)ccc1OC)c1c(-n2cccc2)sc2c1CCN(CC)C2 (stereo not drawn) | inconclusive: 79.4 µM [inhibitor, single point] | 
22 | C1CCC(c2nn3c(-c4n[nH]c5c4CCC5)nnc3s2)CC1 | inconclusive: 10 µM [inhibitor, partial curve, poor fit] | 
23 | CCc1cc2c(=O)c(-c3nc4ccccc4n3C)coc2c(CN2CCCCC2C)c1O (stereo not drawn) | active: 28.2 µM | 
24 | O=C(Nc1ccc2oc(-c3ccc4ccccc4c3)nc2c1)c1ccc2c(c1)OCCO2 | inconclusive: 3.98 µM [inhibitor, partial curve] | 
25 | Cc1cc(Nc2ccc(Cl)cc2C)nc(-n2nc(C)cc2C)n1 | inactive | 
26 | O=C(NCc1ccc2c(c1)CCN2C(=O)c1ccc(F)cc1)c1ccco1 | inactive | 
27 | O=C(NC1CCCCCC1)c1ccc(CS(=O)(=O)Cc2ccccc2F)o1 | inconclusive: 6.31 µM [inhibitor, single point] | 
28 | O=[N+]([O-])c1cc(F)c2cccnc2c1O | inconclusive: 89.1 µM [inhibitor, single point] | 
29 | NC(=O)C1CN(S(=O)(=O)c2ccc(Cl)cc2F)c2ccccc2O1 (stereo not drawn) | active: 63.1 µM | 
30 | COc1ccc(N2CCN(C(c3cccs3)C(C)NC(=O)c3ccc4c(c3)OCO4)CC2)cc1 (stereo not drawn) | inconclusive: 31.6 µM [inhibitor, partial curve] | 
31 | O=C(CSc1nc2c([nH]c3ccccc32)c(=O)n1-c1cccc(Cl)c1)N1CCOCC1 | inconclusive: 8.91 µM [inhibitor, full curve] | 

Remaining list, next part

Row | SMILES | Potency | activity change, negative = inhibition
51 | C=C(C)CN(CC)C(=O)COc1ccc(S(=O)(=O)Nc2ccc(OC)cc2)cc1 | inactive | 
52 | CC1Cc2ccccc2N1C(=O)c1ccc(N2CCCCC2)c([N+](=O)[O-])c1 (stereo not drawn) | inactive | 
53 | COc1cc(OC)c(NC(=O)C2=C(C)C(=O)OC23CCCCC3)cc1Cl | inactive | 
54 | COc1ccccc1CNC(=O)c1cc(Sc2cccc(Cl)c2)nc2ccccc12 | inactive | 
55 | Cn1c(=O)n(Cc2ccco2)c(=N)c2c3c(sc21)CCC3 | inactive | 
56 | O=C(CCCn1c(=O)c2sccc2n(Cc2ccc(F)cc2Cl)c1=O)NCc1ccc2c(c1)OCO2 | inactive | 
57 | Oc1c(Br)cc(Br)cc1CNc1cccc2cccnc12 | active: 44.7 µM | 
58 | O=c1[nH]c(=O)c2nc3c4ccccc4c4ccccc4c3nc2[nH]1 | inconclusive: 1.78 µM [inhibitor, full curve, poor fit] | 
59 | Cc1c(C(=O)O)sc2nc(/C=C/c3cccc(F)c3)[nH]c(=O)c12 | active: 44.7 µM | 
60 | CCCCn1c(CNC(=O)C23CC4CC(CC(C4)C2)C3)nnc1SCC(=O)Nc1ccccc1 | inconclusive: 20 µM [inhibitor, partial curve] | 
61 | COc1ccc(NC(=O)c2cc(CN3C(=O)c4ccccc4C3=O)ccc2OC)cn1 | inconclusive: 20 µM [inhibitor, full curve] | 
62 | O=C(c1cc2ccccc2cc1O)N1CCN(c2ccccn2)CC1 | inconclusive: 89.1 µM [inhibitor, single point] | 
63 | O=C(CN1CCN(c2cccc(C(F)(F)F)c2)CC1)NCc1ccccc1 | inconclusive: 89.1 µM [inhibitor, single point] | 
64 | CCCNC(=O)Nc1ccc2c(c1)N(C)C(=O)c1ccccc1S2 | inconclusive: 3.16 µM [inhibitor, full curve] | 
65 | N#Cc1ccccc1Sc1ccccc1C(=O)Nc1ccc2ccccc2c1 | inconclusive: 56.2 µM [inhibitor, partial curve] | 
66 | CC(C)(C)C1CCC(C(=O)OCC(=O)Nc2ccc3[nH]c(=O)[nH]c3c2)CC1 (stereo not drawn) | inconclusive: 2.51 µM [inhibitor, full curve] | 
67 | CCCCn1c(=O)[nH]c(=O)c2c1nc(-c1ccc(-c3ccccc3Br)o1)n2CC | inactive | 
68 | O=C(Nc1nccs1)c1cc2c(s1)CCCCC2 | inconclusive: 0.141 µM [inhibitor, full curve] | 
69 | CCc1nc2ccc(C(=O)NCCc3ccc(OC)c(OC)c3)cc2nc1CC |  | inconclusive: -40.6% [inhibitor]
70 | CCN(CC)N=Nc1ccc(S(N)(=O)=O)cc1 | inactive | 
71 | N#Cc1c(N)oc(-c2cccs2)c1-c1cccs1 | inconclusive: 79.4 µM [inhibitor, partial curve] | 
72 | COC(=O)CCCC1=CC2=CC(=O)C(C)(OC(=O)CCc3ccccc3)C(=O)C2=CO1 (stereo not drawn) | active: 56.2 µM | 
73 | N#Cc1c2c(c(NCCN3CCOCC3)n3c1nc1ccccc13)CCCC2 | inconclusive: 0.891 µM [inhibitor, full curve, poor fit] | 
